Sequences and labels used below:
B1: S100A8 (protein, UniProt P05109 1-93)
chain: MLTELEKALNSIIDVYHKYSLIKGNFHAVYRDDLKKLLETECPQYIRKKGADVWFKELDINTDGAVNFQEFLILVIKMGVAAHKKSHEESHKE

Amino acid sequences for entries named in this document (tags omitted). Residues count along the entry.
UniProt P06396, residues 28-782: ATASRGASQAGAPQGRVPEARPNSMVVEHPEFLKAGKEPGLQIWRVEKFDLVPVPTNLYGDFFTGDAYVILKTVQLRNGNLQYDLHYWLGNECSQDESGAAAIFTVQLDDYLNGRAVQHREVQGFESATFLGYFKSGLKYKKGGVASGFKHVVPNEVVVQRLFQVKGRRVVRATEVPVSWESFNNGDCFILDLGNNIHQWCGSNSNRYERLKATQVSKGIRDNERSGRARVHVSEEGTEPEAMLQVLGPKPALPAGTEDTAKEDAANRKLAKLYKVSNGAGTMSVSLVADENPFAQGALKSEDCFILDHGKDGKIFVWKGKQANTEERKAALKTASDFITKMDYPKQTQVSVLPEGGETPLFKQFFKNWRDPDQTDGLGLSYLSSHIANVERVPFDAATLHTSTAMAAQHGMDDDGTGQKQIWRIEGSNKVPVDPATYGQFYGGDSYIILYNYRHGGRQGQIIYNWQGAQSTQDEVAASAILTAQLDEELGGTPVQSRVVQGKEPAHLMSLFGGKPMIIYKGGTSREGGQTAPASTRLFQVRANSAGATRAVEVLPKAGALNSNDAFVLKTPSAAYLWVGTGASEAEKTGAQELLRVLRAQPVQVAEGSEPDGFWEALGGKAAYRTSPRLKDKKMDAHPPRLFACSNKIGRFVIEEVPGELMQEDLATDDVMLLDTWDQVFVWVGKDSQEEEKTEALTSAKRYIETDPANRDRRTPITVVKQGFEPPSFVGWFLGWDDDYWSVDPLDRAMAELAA
UniProt Q03135: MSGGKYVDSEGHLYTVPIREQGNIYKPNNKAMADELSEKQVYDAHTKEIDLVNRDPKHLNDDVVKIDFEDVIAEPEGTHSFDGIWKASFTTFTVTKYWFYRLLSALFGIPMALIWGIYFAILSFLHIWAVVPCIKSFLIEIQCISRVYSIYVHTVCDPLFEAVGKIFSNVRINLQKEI
UniProt P04792: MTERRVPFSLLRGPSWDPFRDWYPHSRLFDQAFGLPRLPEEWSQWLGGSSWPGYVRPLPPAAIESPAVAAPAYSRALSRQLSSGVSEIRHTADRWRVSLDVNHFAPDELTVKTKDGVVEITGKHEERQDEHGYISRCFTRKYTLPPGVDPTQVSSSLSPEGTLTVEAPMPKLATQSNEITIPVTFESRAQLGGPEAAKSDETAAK
UniProt P08238: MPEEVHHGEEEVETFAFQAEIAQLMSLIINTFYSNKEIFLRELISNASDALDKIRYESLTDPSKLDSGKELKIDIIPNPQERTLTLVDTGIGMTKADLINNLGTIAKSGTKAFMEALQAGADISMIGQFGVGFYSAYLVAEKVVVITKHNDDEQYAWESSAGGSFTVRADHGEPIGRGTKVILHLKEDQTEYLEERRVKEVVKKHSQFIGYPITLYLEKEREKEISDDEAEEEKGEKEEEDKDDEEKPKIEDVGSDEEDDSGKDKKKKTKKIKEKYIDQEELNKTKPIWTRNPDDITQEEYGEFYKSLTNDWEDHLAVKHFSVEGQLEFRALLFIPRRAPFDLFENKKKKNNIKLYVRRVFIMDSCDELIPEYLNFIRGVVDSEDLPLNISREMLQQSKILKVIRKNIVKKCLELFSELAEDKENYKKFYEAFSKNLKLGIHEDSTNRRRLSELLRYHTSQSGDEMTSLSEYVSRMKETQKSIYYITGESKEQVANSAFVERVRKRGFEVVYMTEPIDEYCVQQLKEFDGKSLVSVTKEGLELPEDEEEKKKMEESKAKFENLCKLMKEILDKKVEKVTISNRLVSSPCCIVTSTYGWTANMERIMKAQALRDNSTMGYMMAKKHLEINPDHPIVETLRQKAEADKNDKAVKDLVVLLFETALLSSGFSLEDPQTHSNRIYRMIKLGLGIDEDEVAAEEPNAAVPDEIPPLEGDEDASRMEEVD
UniProt P08670: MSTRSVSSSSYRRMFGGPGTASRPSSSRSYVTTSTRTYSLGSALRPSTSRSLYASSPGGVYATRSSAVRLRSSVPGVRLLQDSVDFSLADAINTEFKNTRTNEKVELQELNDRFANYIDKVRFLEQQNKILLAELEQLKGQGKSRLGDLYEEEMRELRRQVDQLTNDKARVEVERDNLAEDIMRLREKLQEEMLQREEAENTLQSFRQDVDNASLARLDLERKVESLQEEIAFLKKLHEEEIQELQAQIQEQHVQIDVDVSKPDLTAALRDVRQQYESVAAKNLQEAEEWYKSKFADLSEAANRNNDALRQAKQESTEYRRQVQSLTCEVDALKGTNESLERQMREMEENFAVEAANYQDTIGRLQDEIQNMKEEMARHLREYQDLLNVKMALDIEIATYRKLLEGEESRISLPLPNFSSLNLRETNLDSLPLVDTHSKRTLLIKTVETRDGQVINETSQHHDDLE
UniProt P30101, residues 25-505: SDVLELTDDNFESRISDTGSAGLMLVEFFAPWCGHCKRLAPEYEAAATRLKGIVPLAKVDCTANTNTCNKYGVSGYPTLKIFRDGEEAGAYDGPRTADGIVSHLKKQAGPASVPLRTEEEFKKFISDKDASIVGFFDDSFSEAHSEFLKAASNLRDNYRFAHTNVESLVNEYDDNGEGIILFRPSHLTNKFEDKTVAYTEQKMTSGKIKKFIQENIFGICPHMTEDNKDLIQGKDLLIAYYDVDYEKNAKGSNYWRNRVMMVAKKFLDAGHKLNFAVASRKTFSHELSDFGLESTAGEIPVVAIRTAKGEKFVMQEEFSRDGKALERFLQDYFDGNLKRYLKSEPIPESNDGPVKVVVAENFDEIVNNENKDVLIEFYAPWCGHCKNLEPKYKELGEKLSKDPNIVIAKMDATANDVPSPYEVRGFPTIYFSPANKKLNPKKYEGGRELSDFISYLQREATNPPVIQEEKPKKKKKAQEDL
UniProt P05121, residues 24-402: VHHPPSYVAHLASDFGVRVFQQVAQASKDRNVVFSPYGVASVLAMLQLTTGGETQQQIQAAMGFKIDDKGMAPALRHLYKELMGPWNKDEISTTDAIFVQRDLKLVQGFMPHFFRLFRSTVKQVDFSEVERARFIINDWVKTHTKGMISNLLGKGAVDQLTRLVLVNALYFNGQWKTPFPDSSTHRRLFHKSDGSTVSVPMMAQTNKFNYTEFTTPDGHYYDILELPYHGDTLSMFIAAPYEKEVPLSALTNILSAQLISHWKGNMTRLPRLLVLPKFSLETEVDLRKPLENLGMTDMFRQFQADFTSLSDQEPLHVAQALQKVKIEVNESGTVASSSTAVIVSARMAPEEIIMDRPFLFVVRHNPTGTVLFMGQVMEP
UniProt P10809, residues 27-573: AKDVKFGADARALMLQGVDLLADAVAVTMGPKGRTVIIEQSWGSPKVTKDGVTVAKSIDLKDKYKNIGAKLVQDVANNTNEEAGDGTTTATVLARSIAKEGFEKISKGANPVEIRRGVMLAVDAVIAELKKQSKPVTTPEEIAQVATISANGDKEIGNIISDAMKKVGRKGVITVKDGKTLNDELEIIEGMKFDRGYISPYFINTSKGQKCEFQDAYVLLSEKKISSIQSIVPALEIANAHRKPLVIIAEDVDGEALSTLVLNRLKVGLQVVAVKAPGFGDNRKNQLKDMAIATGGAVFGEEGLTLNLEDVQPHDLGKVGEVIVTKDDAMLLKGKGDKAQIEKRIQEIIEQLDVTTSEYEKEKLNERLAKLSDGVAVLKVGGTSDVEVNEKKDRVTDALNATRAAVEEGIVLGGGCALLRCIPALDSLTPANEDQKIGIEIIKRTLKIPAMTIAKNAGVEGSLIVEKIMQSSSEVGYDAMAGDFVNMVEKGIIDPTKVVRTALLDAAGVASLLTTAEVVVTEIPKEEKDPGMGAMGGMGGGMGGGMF

These are yes or no findings as the source states them, for the method shown. In cells and extracts the contact can be indirect. Here binding means that the protein was enriched with, or labelled near, the bait; the list need not be complete.

One experiment concerns the target Yes-associated protein 1 (YAP1) (human (endogenous in CFBE)) (UniProt P46937). In words: affinity purification with mass spectrometry; YAP1 immunoprecipitated with anti-YAP1 crosslinked beads from CFBE wt- and F508del-CFTR cell lysates; short SDS-PAGE, in-gel trypsin digest, nanoLC-MS/MS; interactors are proteins identified in at least two of three replicates; the named hits belong to the F508del-CFTR-specific set.
Consider “Gelsolin (GSN) (from UniProt P06396 28-782)”, for which the binding result is “binds”. On the same count and under the same terms, under “CAV1 (caveolin-1) (from UniProt Q03135 1-178)” stands “binds”; under “HSPB1 (heat shock protein β-1) (from UniProt P04792 1-205)”, “binds”; under “HSP90AB1 (heat shock protein 90 α family class B member 1) (from UniProt P08238 1-724)”, “binds”.

Consider “VIM (vimentin) (from UniProt P08670 1-466)”, for which the binding result was “binds”.

As to “PDIA3 (protein disulfide-isomerase A3) (from UniProt P30101 25-505)”, the binding entry is recorded as “binds”. In the case of “plasminogen activator inhibitor 1 (PAI-1, SERPINE1) (from UniProt P05121 24-402)”, the binding entry was “binds”. The same measure, in the same setting: under “TP53 (tumor protein p53) (from UniProt P04637 1-393)” stands “binds”; under HSPD1 (from UniProt P10809 27-573), “binds”.

For the next experiment the target is unchanged. The experiment is described as above. The source holds these as a separate data set.
Take B1: the binding result is reported as “binds”.

(Values after article PMC9060002.)
